Results reported in paper PMC7570020, “The PIFs Redundantly Control Plant Defense Response against Botrytis cinerea in Arabidopsis”.

Biological target: T1, GST-PIF4 bHLH (Arabidopsis thaliana) (UniProt Q8W2F3)
T1 sequence (looked up, limits assumed): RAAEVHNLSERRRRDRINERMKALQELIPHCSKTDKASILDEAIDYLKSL
Assay: EMSA
Details: Chemiluminescent EMSA Kit (Beyotime), manufacturer's protocol; pH and temperature not stated; recombinant protein; protein details: N-terminal GST (pGEX); label: 5' biotin

Question: Does “GAGCCAAAAACTTTGAATGACCTCGGGATATCAAATAATCA (double strand) [ERF1 mutant probe]” bind?
Answer: Result: no binding

For at least one entry, the source does not settle the construct or the ends of the probe. No signal at the amounts used counts as a negative. At least one verdict was read from the data and is not stated in words by the source. Protein sequences can lack the tags named with them.
